Source: the supplement of paper PMC3741180, “A Novel High Throughput Biochemical Assay to Evaluate the HuR Protein-RNA Complex Formation” (PLoS ONE, 2013)
Several values for one entry are separate records, joined by “and”; a condition that tells them apart may be missing. Equal entries are not always repeated. The list shows a part of the results. Most values lie within the scatter of the assay; repeated measurements hardly agree.

Protein sequences, listed by entry. Tags and fused reporters are not part of them.
UniProt Q15717, whole entry: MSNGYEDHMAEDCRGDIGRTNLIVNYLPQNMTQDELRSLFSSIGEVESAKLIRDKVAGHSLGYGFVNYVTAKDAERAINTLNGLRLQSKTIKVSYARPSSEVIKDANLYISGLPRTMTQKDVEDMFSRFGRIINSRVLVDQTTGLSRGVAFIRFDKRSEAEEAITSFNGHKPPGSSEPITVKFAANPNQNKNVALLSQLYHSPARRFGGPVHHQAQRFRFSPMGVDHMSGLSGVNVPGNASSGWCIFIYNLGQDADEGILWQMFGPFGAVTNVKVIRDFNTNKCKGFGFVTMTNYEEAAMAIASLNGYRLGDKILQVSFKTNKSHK

Molecular target: HuR (ELAVL1) - TNFalpha ARE RNA complex (UniProt Q15717)
Test: AlphaScreen HuR-RNA complex signal Z-score relative to positive (Bi-TNF, DMSO) controls (Z-score (SD units of positive control)); higher = more complex signal
Settings: screen stage: primary screen; compound concentration: 25 nM

SMILES | AlphaScreen HuR-RNA complex signal Z-score
CN[C@@H]1[C@@H](O)[C@@H](O[C@@H]2[C@@H](O)[C@H](O[C@H]3O[C@H]([C@@H](C)O)[C@@H](O)[C@H](O)[C@H]3N)[C@@H](N)C[C@H]2N)OC[C@]1(C)O | 1.85
CC(C)C[C@H]1C(=O)N2CCC[C@H]2[C@]2(O)O[C@](NC(=O)[C@@H]3C=C4c5cccc6[nH]c(Br)c(c56)C[C@H]4N(C)C3)(C(C)C)C(=O)N12 | 0.588
CN1[C@@H]2CC[C@H]1C[C@@H](OC(=O)C(CO)c1ccccc1)C2 (some centres not stated) | 0.315
CN1[C@@H]2CC[C@H]1C[C@@H](OC(c1ccccc1)c1ccccc1N)C2 (some centres not stated) | -0.446
CNC(Cc1c[nH]c2ccccc12)C(=O)O (configuration not stated) | 0.303
CNC(C)(C)Cc1ccccc1 | 1.5
O=C(O)CCCOc1ccc(Cl)cc1Cl | 0.352
O=C(NC(=O)c1ccccc1Cl)Nc1ccc(OC(F)(F)F)cc1 | 3.61
COc1ccc(C(CN(C)C)C2(O)CCCCC2)cc1 (configuration not stated) | 1.21
CNC(=O)Oc1ccc2c(c1)[C@]1(C)CCN(C)[C@@H]1N2C | 0.61
CN(C)C(=O)Oc1cccc([N+](C)(C)C)c1 | -0.204
CN1[C@H]2C[C@H](OC(=O)[C@H](CO)c3ccccc3)C[C@@H]1[C@@H](O)C2 | -4.91
CC(C)(N)Cc1ccccc1 | 0.765
CN(CC[C@H](N)CC(=O)N[C@H]1C=C[C@H](n2ccc(N)nc2=O)O[C@@H]1C(=O)O)C(=N)N | 2.21
COc1ccc(C(=O)O)cc1OC | 1.77
CC1(C)C2CC(=O)[C@]3(C)C(CC[C@@]4(C)[C@H](c5ccoc5)OC(=O)[C@H]5O[C@]543)[C@@]2(C)C(=O)C[C@H]1O (some centres not stated) | 1.66
NCC(=O)c1ccccc1 | 2.35
O=c1c(O)c(-c2ccc(O)c(O)c2)oc2c(O)c(O)cc(O)c12 | 0.946
CN1CCc2cc3c(cc2C1O)OCO3 (configuration not stated) | 0.412
COc1cccc2c1cc([N+](=O)[O-])c1c(C(=O)O)cc3c(c12)OCO3 | -0.0874
COc1ccc(/C=C/c2cc(O)cc(O)c2)cc1 | 2.08
O=c1[nH]c2ccccc2n1C1CCN(CCCC(c2ccc(F)cc2)c2ccc(F)cc2)CC1 | 0.544
CC(=O)[O][Hg][c]1ccccc1 | -1.27
CC(=O)Nc1cc([As](=O)(O)O)ccc1O | -0.623
Cc1cc2c(C(C)C)c(O)c(O)c(C=O)c2c(O)c1-c1c(C)cc2c(C(C)C)c(O)c(O)c(C=O)c2c1O | 2.42

SMILES | AlphaScreen HuR-RNA complex signal Z-score
C/C=C(\C)C(=O)O[C@H]1C[C@@H](OC(C)=O)[C@@]2(C(=O)OC)CO[C@H]3[C@@H](O)[C@@](C)([C@]45O[C@@]4(C)[C@H]4C[C@@H]5O[C@@H]5OC=C[C@@]54O)[C@H]4[C@]1(CO[C@]4(O)C(=O)OC)[C@@H]32 | 0.635
COc1cc2c(cc1OC)[C@@H]1C(=O)c3ccc(OC)c(CC=C(C)C)c3O[C@@H]1CO2 | 1.81
C#CCN(C)[C@H](C)Cc1ccccc1 | 0.995
C[C@@H]1O[C@@H](O[C@@H]2C=C3CC[C@@H]4[C@H](CC[C@]5(C)[C@@H](c6ccc(=O)oc6)CC[C@]45O)[C@@]3(C)CC2)[C@H](O)[C@H](O)[C@H]1O | 1.64
CN(C)C(=O)Oc1ccc[n+](C)c1 | 1.36
c1cc2c(cc1[C@H]1OC[C@H]3[C@@H]1CO[C@H]3c1ccc3c(c1)OCO3)OCO2 | -0.381
c1ccc2c(c1)[nH]c1cnccc12 | 1.55
O=[N+]([O-])c1ccc(O)c([N+](=O)[O-])c1 | 1.94
COC1=C[C@]23CCCN2CCc2cc4c(cc2[C@@H]3[C@@H]1O)OCO4 | 1.56
NCCCNCCSP(=O)(O)O | 3.14
CC(C)c1ccc2c(c1O)CC[C@H]1C3=C(CC[C@]21C)C(=O)OC3 | 1.55
COP(=S)(OC)Oc1cc(Cl)c(Cl)cc1Cl | 3.19
COc1cc2occc2c2oc(=O)ccc12 | 0.386
CCCCCCCCC(=O)NCc1ccc(O)c(OC)c1 | -0.471
COc1cc2c(cc1O)C[C@H]1c3c(cc(O)c(OC)c3-2)CCN1C | 2.83
CC1(C)C(=O)C=C[C@@]2(C)C1=C(O)C(=O)[C@]1(C)[C@@H]2CC[C@@]2(C)[C@H](c3ccoc3)C[C@H]3O[C@]321 | 0.09
Cc1c(O)c(O)cc2c1CC=C1[C@@]2(C)CC[C@@]2(C)[C@@H]3C[C@](C)(C(=O)O)CC[C@]3(C)CC[C@]12C | 2.5
O=C1CCO1 | 3.76
COc1ccc(OC)c(C(O)C(C)N)c1 (configuration not stated) | 1.95
CCC(=O)O[C@H]1CC[C@H]2[C@@H]3CCC4=CC(=O)CC[C@]4(C)[C@H]3CC[C@]12C | 0.315
O=C1C(Cl)=C(Cl)C(=O)C(Cl)=C1Cl | 1.61
C[C@@H]1CC[C@]2(NC1)O[C@H]1C[C@H]3[C@@H]4CC=C5C[C@@H](O)CC[C@]5(C)[C@H]4CC[C@]3(C)[C@H]1[C@@H]2C | 2.68
Oc1ccc(Cl)cc1Cc1cc(Cl)ccc1O | 0.981
Cl[C@H]1[C@H](Cl)[C@@H](Cl)[C@@H](Cl)[C@H](Cl)[C@H]1Cl | 0.719
CNC(=O)Oc1cccc2c1OC(C)(C)C2 | 0.687

Compounds listed so far that have sulfur (two):
SMILES | AlphaScreen HuR-RNA complex signal Z-score
NCCCNCCSP(=O)(O)O | 3.14
COP(=S)(OC)Oc1cc(Cl)c(Cl)cc1Cl | 3.19

No new results follow: 2 of the compounds above.
SMILES | AlphaScreen HuR-RNA complex signal Z-score
COc1ccc(C(CN(C)C)C2(O)CCCCC2)cc1 (configuration not stated) | 1.21
CNC(=O)Oc1ccc2c(c1)[C@]1(C)CCN(C)[C@@H]1N2C | 0.61

Carrying on:

SMILES | AlphaScreen HuR-RNA complex signal Z-score
COc1cc([C@@H]2c3cc4c(cc3[C@@H](O)[C@H]3COC(=O)[C@H]23)OCO4)cc(OC)c1O | 1.98
CCCC(C)(COC(N)=O)COC(=O)NC(C)C (configuration not stated) | 0.312
COC(C)(C)CCC[C@H](C)C/C=C/C(C)=C/C(=O)OC(C)C | 1.26
C[C@@]12C(=O)OC(=O)[C@]1(C)[C@H]1CC[C@@H]2O1 | 2.62
COc1cc(OC)c(OC)cc1C=O | 2.04
C[N+]1(C)CCCC(OC(=O)C(O)(c2ccccc2)c2ccccc2)C1 (configuration not stated) | 4.97
CN1C2CCC1CC(O)C2 (configuration not stated) | 2.93
CC(=O)O[C@@H]1C[C@H]2C(C)(C)C(=O)C=C[C@]2(C)[C@H]2CC[C@]3(C)C(=CC(=O)O[C@H]3c3ccoc3)[C@@]21C | 2.09
COC(=O)NC(=S)Nc1ccccc1NC(=S)NC(=O)OC | 2.08
CCOP(=S)(OCC)Oc1ccc2c(C)c(Cl)c(=O)oc2c1 | 0.559
CC(C)=CCC[C@]1(C)C=Cc2c(O)c3c(c(CC=C(C)C)c2O1)O[C@]12C(=C[C@@H]4C[C@H]1C(C)(C)O[C@@]2(C/C=C(/C)C(N)=O)C4=O)C3=O | -0.531
CC1CC(Cl)CCC1C(=O)OC(C)(C)C (configuration not stated) | 1.61
C=CCC1(C(C)CCC)C(=O)NC(=S)NC1=O (configuration not stated) | 2.35
CCCCCCCCCCCCCCCC[n+]1ccccc1 | -6.13
c1ccc(/N=N/c2ccccc2)cc1 | 2.03
COP(=S)(OC)Oc1ccc(Sc2ccc(OP(=S)(OC)OC)cc2)cc1 | 0.412
O=P1(N(CCCl)CCCl)NCCCO1 (configuration not stated) | -2.6
c1ccc2c(c1)sc1ccccc12 | -6.15
CN1C(=O)CCS(=O)(=O)C1c1ccc(Cl)cc1 (configuration not stated) | 1.78
COc1cc([C@@H]2c3cc4c(cc3[C@H](OC(C)=O)[C@H]3COC(=O)[C@@H]23)OCO4)cc(OC)c1OC | 0.0695
O=C(O)Cc1cnc[nH]1 | 1.88
COc1cc2c(c(OC)c1OC)-c1ccc(OC)c(=O)cc1[C@@H](NC(C)=O)CC2 | -2.71
CC[C@@H](CO)NC(=O)[C@@H]1C=C2c3cccc4c3c(cn4C)C[C@H]2N(C)C1 | 0.486 and 0.567
N#C[C@H](O[C@@H]1O[C@H](CO[C@@H]2O[C@H](CO)[C@@H](O)[C@H](O)[C@H]2O)[C@@H](O)[C@H](O)[C@H]1O)c1ccccc1 | 0.807
CC1C=CC=CCCC=CC=CC=CC=CC(OC2OC(C)C(O)C(N)C2O)CC2OC(O)(CC(O)C(O)CCC(O)CC(O)CC(O)CC(=O)OC(C)C(C)C1O)CC(O)C2C(=O)O (configuration not stated) | 10.1

SMILES | AlphaScreen HuR-RNA complex signal Z-score
C[C@@H]1C[C@H](O)[C@@]2(O)[C@]13CC(=O)OC[C@@]2(C)[C@@](C)(O)C(=O)C3 | 3.2
CC(=O)O[C@H]1CC[C@@]2(C)[C@H](CC[C@@H]3[C@@H]2CC[C@]2(C)[C@@H](C4=CC(=O)OC4)[C@@H](OC(C)=O)C[C@]32O)C1 | 2.32
CC[N+]1(C)CCCC(OC(=O)C(O)(c2ccccc2)c2ccccc2)C1 (configuration not stated) | 2.35
CC1=C2C(=CO[C@H](C)[C@H]2C)C(O)=C(C(=O)O)C1=O | 1.16
CC(C)Nc1nc(Cl)nc(NC(C)C)n1 | 1.25
N#Cc1c(Cl)c(Cl)c(Cl)c(C#N)c1Cl | 0.376
N[C@H](CO)Cc1ccccc1 | 2.22
Cc1[nH]c2ccccc2c1CN(C)C | 1.77
Cc1nccc2c1[nH]c1cc(O)ccc12 | -0.107
CCCCCCC(C)OC(=O)COc1ccc(Cl)cc1Cl (configuration not stated) | 0.101
CC(C)c1cc2c(c(O)c1O)[C@@]1(C(=O)O)CCCC(C)(C)[C@@H]1CC2 | 0.572
O=C(O)CC[N+](=O)[O-] [BOVINOCIDIN (3-nitropropionic acid)] | -0.473
Oc1ccc2c3c1O[C@H]1[C@@H](O)CC[C@@]4(O)[C@@H](C2)N(CC2CCC2)CC[C@]314 | 0.582
C/C=C/c1ccc2c(c1)OCO2 | 1.18
CN1CCc2cc3c(cc2[C@H]1[C@@H]1OC(=O)c2c1ccc1c2OCO1)OCO3 | -1.25
CN1C[C@H](CNC(=O)OCc2ccccc2)C[C@@H]2c3cccc4c3c(cn4C)C[C@H]21 | -1.48
CC(N)C(O)c1ccccc1 (configuration not stated) | 7.24
CC1(C)C(=O)[C@@H]2O[C@@H]2[C@@]2(C)C1C[C@@H](O)[C@]1(C)C2CC[C@@]2(C)[C@H](c3ccoc3)OC(=O)C3OC321 (stereo partly drawn) [1,2alpha-EPOXYDEACETOXYDIHYDROGEDUNIN] | 1.39
CC1=CCCC2C1(C)CCC(C)C2(C)CC/C(C)=C/Cn1c[n+](C)c2c(N)ncnc21 (configuration not stated) [AGELASINE (stereochemistry of diterpene unknown)] | 0.15
O=C(CCCN1CCC2(CC1)C(=O)NCN2c1ccccc1)c1ccc(F)cc1 | 1.31
O=[N+]([O-])O[C@H]1CO[C@H]2[C@@H]1OC[C@H]2O[N+](=O)[O-] | 3.95
O=c1cccc2n1C[C@@H]1CNC[C@H]2C1 | 0.536

Compounds from the list above containing a nitro group on carbon, in the order listed:
SMILES | AlphaScreen HuR-RNA complex signal Z-score
COc1cccc2c1cc([N+](=O)[O-])c1c(C(=O)O)cc3c(c12)OCO3 | -0.0874
O=[N+]([O-])c1ccc(O)c([N+](=O)[O-])c1 | 1.94
O=C(O)CC[N+](=O)[O-] [BOVINOCIDIN (3-nitropropionic acid)] | -0.473
